Reference: PubChem BioAssay AID504467 (National Center for Advancing Translational Sciences (NCATS), 2011)
The campaign covered roughly 330,000 compounds. About 7,700 (2.3%) were called active. The shares of active, inactive and inconclusive entries below differ from those in the screen. Calls follow the shape of the dose curve; as a rule, active = well fitted inhibition curve with a large enough effect; inconclusive = small, poorly fitted or top-dose-only effect, or effect the other way; inactive = flat fitted curve, though single readings scatter. Where the call is inconclusive, the potency comes from a doubtful curve fit.

experiment: qHTS screen for small molecules that inhibit ELG1-dependent DNA repair in human embryonic kidney (HEK293T) cells expressing luciferase-tagged ELG1; settings: HEK293T ELG1-luciferase reporter, luminescence, 16 h, DNA damage induced by 5-fluorouridine; activity change, negative = inhibition: at 46.1 µM (top of the series); also: nearly all actives have a fitted effect of over 55% in size
In short: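 Quantitative HTS, concentration-response format. 2,000 cells/well co-treated with 5-fluorouridine and compound, 16 hr in 5% CO2 at 37 °C; ONE-Glo luminescence read after 30 min.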
% is scaled to controls: 0 for no effect and ±100 for the full control effect; potency is read from the fitted curve at half-maximal effect.

Row | Structure (SMILES) | Potency | activity change, negative = inhibition
1 | COc1ccccc1C(=O)COC(=O)c1cccc(-n2cnnn2)c1 | inconclusive: 13 µM [activator, partial curve, poor fit] | –
2 | Nc1nc(N)c(Cc2ccc(Cl)cc2Cl)c(N)n1 | inconclusive: 23.1 µM [inhibitor, single point] | –
3 | COc1ccc(OC)c(NC(=O)c2ccccc2N(C)S(=O)(=O)c2ccc(C)cc2)c1 | inconclusive: 35.5 µM [inhibitor, single point] | –
4 | CC(C)(C)NC(=O)COC(=O)c1ccc2c(c1)C(=O)N(Cc1ccco1)C2=O | – | inactive: 11.8%
5 | CCC1(C)Cc2ccccc2-c2nc(NCCCO)n(-c3ccccc3)c(=O)c21 (centres undefined) | – | inactive: -16.9%
6 | Cc1ccc2nc(Nc3nc(C)cc(C(F)(F)F)n3)nc(C)c2c1 | – | inactive: -4.71%
7 | Cc1nnc(NC(=O)c2cccc(S(=O)(=O)N3CCCC3)c2)s1 | – | inactive: -3.72%
8 | COC(=O)c1ccc(OC)c(OC)c1Cl | inconclusive: 18.3 µM [activator, partial curve, poor fit] | –
9 | COc1ccc(CCNC(=O)C(=O)c2c(C)[nH]c3ccccc23)cc1 | inconclusive: 32.6 µM [inhibitor, partial curve, poor fit] | –
10 | Cc1ccc(-n2cc(-c3ccccc3)c3c(N4CCOCC4)ncnc32)cc1 | inconclusive: 25.9 µM [inhibitor, single point] | –
11 | CCn1c(SCC(=O)c2ccc3c(c2)OCCO3)nnc1-c1ccco1 | – | inactive: 15.5%
12 | COc1ccc2[nH]cc(C(=O)CN3CCC(C)CC3)c2c1 | inconclusive: 18.4 µM [activator, partial curve] | –
13 | N#Cc1ccc[n+](CC(=O)c2ccc(NC(=O)c3ccccc3)cc2)c1 | inconclusive: 20.6 µM [activator, partial curve, poor fit] | –
14 | O=C(N=C1SC2CS(=O)(=O)CC2N1c1ccccc1)c1cccc([N+](=O)[O-])c1 (centres undefined) | inconclusive: 13 µM [inhibitor, partial curve, poor fit] | –
15 | CN1CCCC(OC(=O)c2cccc(Cl)c2)C1 (centres undefined) | – | inactive: -5.28%
16 | CN1C(=O)C(C)(C)c2cc(S(=O)(=O)NCc3ccc(C(=O)NCc4ccco4)cc3)ccc21 | – | inactive: 10.7%
17 | CC(C)(C)OC(=O)NCCc1nnc(SCC(=O)c2ccc(Cl)cc2)o1 | inconclusive: 10.3 µM [inhibitor, partial curve] | –
18 | C/C(=N\NC(=O)c1c(C)nc2ccccn12)c1ccc(N2CCOCC2)cc1 | – | inactive: 0.917%
19 | COc1ccc(NC(=O)C2CCC(CNc3c(N4CCCCC4)c(=O)c3=O)CC2)c(OC)c1 (centres undefined) | active: 7.3 µM | –
20 | COc1ccc2oc(C(=O)NCC3CCCO3)c(C)c2c1 (centres undefined) | inconclusive: 14.6 µM [activator, partial curve] | –
21 | Cc1ccc(N2C(=O)C3C4C=CC(CNC(=S)Nc5ccc(F)cc5)(O4)C3C2=O)cc1 (centres undefined) | – | inactive: -5.09%
22 | CC(CCc1ccccc1)NC(=O)COC(=O)C(CCC(N)=O)NC(=O)c1ccc(F)cc1 (centres undefined) | – | inactive: 16.6%

Row | Structure (SMILES) | Potency | activity change, negative = inhibition
23 | COc1ccc(-c2c(C(C)=O)c(C)nc3sc4c(c23)NC(c2ccccc2)NC4=O)cc1 (centres undefined) | – | inactive: -29.8%
24 | Cc1ccc(C(C(=O)NCC2CCCO2)N(C(=O)c2snc(C(N)=O)c2N)c2ccc(C)c(C)c2)o1 (centres undefined) | inconclusive: 20.6 µM [activator, partial curve, poor fit] | –
25 | COc1ccc(NC(=O)/C(Cl)=C(/Cl)S(=O)Cc2ccccc2)cn1 (centres undefined) | active: 8.2 µM | –
26 | CCN1CCN(CCCNC(=O)c2ccc3c(c2)N(Cc2ccc(C)cc2)CCS3)CC1 | – | inactive: -1.42%
27 | COc1ccc(-c2cc(C(=O)Nc3ccc(S(=O)(=O)Nc4onc(C)c4C)cc3)c3ccccc3n2)cc1 | inconclusive: 29.1 µM [activator, single point] | –
28 | CCOC(=O)c1csc(NC(=O)c2cc3ccccc3o2)n1 | inconclusive: 9.2 µM [activator, partial curve, poor fit] | –
29 | O=C(O)c1ccccc1SC1CC(=O)N(C2CCCCC2)C1=O (centres undefined) | inconclusive: 32.6 µM [activator, partial curve, poor fit] | –
30 | O=C(Nc1cccc([N+](=O)[O-])c1)c1ccn[nH]1 | inconclusive: 13 µM [activator, partial curve] | –
31 | COC(=O)N/N=C/c1ccccc1OCc1ccccc1 | – | inactive: 11.4%
32 | Cc1ccc(NS(=O)(=O)c2ccc3c(c2)OCCCO3)cc1S(=O)(=O)N1CCOCC1 | – | inactive: -12.8%
33 | CCC(C)NC(=O)c1c(N)n(/N=C/c2ccccn2)c2nc3ccccc3nc12 (centres undefined) | inconclusive: 5.17 µM [inhibitor, full curve] | –
34 | O=C(COc1ccc2ccccc2c1)NC1CC1 | inconclusive: 18.4 µM [activator, partial curve] | –
35 | O=S(=O)(Nc1nc2ccccc2nc1Cl)c1ccc2c(c1)OCCO2 | inconclusive: 29.1 µM [inhibitor, partial curve, poor fit] | –
36 | S=c1[nH]nc(-c2cccs2)n1/N=C/c1cn(-c2ccccc2)nc1-c1ccccc1 | inconclusive: 20.6 µM [inhibitor, single point] | –
37 | CCN1CCN(c2ccc(S(=O)(=O)N3CCCCC3)cc2NC(=O)c2cccc(C(F)(F)F)c2)CC1 | – | inactive: 4.04%
38 | CCN(CC)S(=O)(=O)c1ccc2oc(C(=O)NC3CCCc4ccccc43)c(C)c2c1 (centres undefined) | inconclusive: 14.6 µM [inhibitor, single point] | –
39 | CCc1noc(C)c1C(=O)Nc1nc(-c2cc(C)ccc2C)c(C)s1 | inconclusive: 18.4 µM [inhibitor, partial curve, poor fit] | –
40 | O=C(NCCc1ccccc1)N1CCCC(CNS(=O)(=O)Cc2ccccc2)C1 (centres undefined) | inconclusive: 16.4 µM [activator, partial curve, poor fit] | –
41 | Cc1nc(SCC(=O)N2CCN(c3ccccn3)CC2)c(C#N)c(C)c1C | inconclusive: 25.9 µM [inhibitor, single point] | –
42 | COc1ccccc1-c1nnc(SCC(=O)NC2CCCCC2)n1N | inconclusive: 23.1 µM [activator, single point] | –
43 | CC(C)c1ccc(NC(=O)CCc2ccccc2)cc1 | inconclusive: 23.1 µM [activator, partial curve] | –
44 | COCCNC(=O)c1cccc(OC2CCN(Cc3ccccc3OC(F)F)CC2)c1 | inconclusive: 16.4 µM [inhibitor, partial curve] | –

Single entries from the results shown:
In activity change, negative = inhibition, CC(C)(C)NC(=O)COC(=O)c1ccc2c(c1)C(=O)N(Cc1ccco1)C2=O reads inactive: 11.8%
In Potency, Nc1nc(N)c(Cc2ccc(Cl)cc2Cl)c(N)n1 reads inconclusive: 23.1 µM [inhibitor, single point]
